{"sequences": {"note": "Protein sequences, listed by entry. Tags and fused reporters are not part of them. Lines headed by an entry give the natural chain unless they say otherwise; changes in a name come on top.", "UniProt Q9UNA4": "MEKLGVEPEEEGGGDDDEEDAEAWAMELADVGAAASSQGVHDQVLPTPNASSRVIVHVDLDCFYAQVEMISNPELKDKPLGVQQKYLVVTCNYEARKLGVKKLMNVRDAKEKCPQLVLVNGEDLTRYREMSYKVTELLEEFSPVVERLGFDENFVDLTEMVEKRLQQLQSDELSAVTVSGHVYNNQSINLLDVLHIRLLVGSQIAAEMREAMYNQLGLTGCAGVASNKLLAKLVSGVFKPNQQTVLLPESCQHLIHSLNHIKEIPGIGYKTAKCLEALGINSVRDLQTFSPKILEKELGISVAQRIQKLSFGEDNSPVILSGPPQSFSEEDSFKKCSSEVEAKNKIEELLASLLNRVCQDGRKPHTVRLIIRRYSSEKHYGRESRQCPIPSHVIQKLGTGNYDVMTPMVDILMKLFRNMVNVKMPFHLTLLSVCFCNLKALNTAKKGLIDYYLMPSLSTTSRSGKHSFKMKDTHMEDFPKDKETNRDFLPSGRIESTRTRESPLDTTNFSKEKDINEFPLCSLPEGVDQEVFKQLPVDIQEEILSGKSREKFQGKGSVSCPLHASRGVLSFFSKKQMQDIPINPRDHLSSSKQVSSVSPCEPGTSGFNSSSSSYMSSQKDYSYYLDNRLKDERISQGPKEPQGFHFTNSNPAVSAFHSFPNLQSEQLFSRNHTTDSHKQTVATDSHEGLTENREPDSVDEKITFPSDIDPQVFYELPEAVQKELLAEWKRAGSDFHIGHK"}, "source": "PubChem BioAssay AID588590", "about": "(National Center for Advancing Translational Sciences (NCATS), 2011)", "note": "The whole screen tested about 390,000 compounds, of which about 4,000 (1%) were called active. Inconclusive means that the source gave no clear call. Such entries were picked first, then a sample of the others. The call rests on the fitted dose curve; in most records, active means well fitted inhibition curve with a large enough effect; inconclusive means small, poorly fitted or top-dose-only effect, or another doubt; inactive means no such curve, though single readings can be large or run the other way. Where the call is inconclusive, the potency comes from a doubtful curve fit. Potency means the concentration at half of the fitted maximal effect.", "data": [{"molecular_target": "DNA polymerase iota (Homo sapiens) (UniProt Q9UNA4)", "assay": "qHTS for Inhibitors of Polymerase Iota", "conditions": "Pol iota fluorescent replication assay, 10 min; series mostly up to 115 µM; activity, negative = inhibition: at the top concentration", "outline": "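Fluorescent replication assay read twice, at 0 min and 10 min after adding 50 nM (final) substrate. Enzyme (10 nM) and compounds were first incubated 15 min at room temperature; enzyme-free buffer wells were negative controls.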", "values": [{"smiles": "COc1ccc(-c2cc(C(F)(F)F)n3nc(C(=O)Nc4cccc(Cl)c4Cl)cc3n2)cc1OC", "Potency": "inconclusive: 100 µM [inhibitor, single point]"}, {"smiles": "CC1(C)C(=O)Nc2ccccc2N1C(=O)Cn1ncc(Cl)c(Cl)c1=O", "Potency": "inconclusive: 56.2 µM [inhibitor, partial curve, poor fit]"}, {"smiles": "c1ccc(CCc2nn3c(Cn4nnc5ccccc54)nnc3s2)cc1", "Potency": "inconclusive: 39.8 µM [inhibitor, single point]"}, {"smiles": "O=C(CCS(=O)(=O)c1nc(-c2ccc3c(c2)OCO3)cc(C(F)(F)F)n1)Nc1ccccc1C(F)(F)F", "Potency": "inconclusive: 39.8 µM [inhibitor, partial curve, poor fit]"}, {"smiles": "CCn1c(SCC(=O)c2cc(OC)ccc2OC)nnc1C1CC1", "Potency": "inconclusive: 1.26 µM [inhibitor, full curve, poor fit]"}, {"smiles": "CCOc1ccccc1NC(=O)Cn1nnc(C(=O)NCCc2ccc(OCC)c(OCC)c2)c1N", "Potency": "inconclusive: 56.2 µM [inhibitor, partial curve, poor fit]"}, {"smiles": "COC(=O)C1=C[C@@H](C(=O)OC)C2C3=C(C(=O)[C@@]2(C)NC(=O)c2ccccc2)[C@H](C)[C@@H]2C(=O)NC(=O)[C@@H]2[C@@H]3C1", "note": "(stereo not given in full)", "Potency": "inconclusive: 100 µM [inhibitor, single point]"}, {"smiles": "O=C1NC(=Nc2ccccc2)/C(=C/c2ccco2)S1", "Potency": "inconclusive: 89.1 µM [inhibitor, single point]"}, {"smiles": "Cc1cc(C)c2c(N)c(C(=O)Nc3ccc([N+](=O)[O-])cc3)sc2n1", "Potency": "inconclusive: 2.82 µM [inhibitor, partial curve, poor fit]"}, {"smiles": "Cn1ccc(=Nc2ccc(NC(=O)c3ccc(N=c4ccn(C)c5ccc([N+](=O)[O-])cc45)cc3)cc2)cc1", "Potency": "inconclusive: 1.12 µM [inhibitor, full curve, poor fit]"}, {"smiles": "Cc1oc(-c2ccccc2)nc1Cn1c(=O)cc(-c2ccccc2)c2c(C)nn(C)c21", "Potency": "inconclusive: 79.4 µM [inhibitor, single point]"}, {"smiles": "COc1cccc(CNC(=O)Nc2ccc3c(c2)N(C)C(=O)c2ccccc2S3)c1", "activity, negative = inhibition": "inactive: 77.1%"}, {"smiles": "C=C/C(C)=C/CC1C(=C)CCC2C(C)(C(=O)O)CCCC12C", "note": "(stereo not given)", "Potency": "inconclusive: 10 µM [inhibitor, partial curve, poor fit]"}, {"smiles": "COc1ccc(CNC(=O)C2CCN(c3nnc(C)c4c(C)n(-c5ccc(C)cc5)nc34)CC2)cc1", "activity, negative = inhibition": "inactive: 2.39%"}, {"smiles": "Nc1nc(SCc2ccccc2Cl)[nH]c(=O)c1-c1ccccc1", "Potency": "inconclusive: 56.2 µM [inhibitor, partial curve, poor fit]"}]}]}
